# Experimental data: PubChem BioAssay AID1259405 (NCATS, 2018)
# Aim: 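Knock-downs that lift recombinant protein yield in hamster ovary cells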 (primary screen)
# System: Chinese hamster CHO-K1 ovary cells with stable secreted eGFP expression
# Knock-down reagent: single siRNA against mouse genes, 0.8 pmol siRNA per well (2 µl of 400 nM stock)
# Duration: 3 days
# Detection: 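Percent of the per-plate non-targeting control median for intracellular GFP per well by laser scanning cytometry and for cell viability by ATP luminescence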
# Direction: GFP, % of control: higher = more GFP per well, higher productivity; viability (ATP), % of control: higher = more viable cells (more ATP)
# Call rule: 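a knock-down is called active if GFP reaches 120% or more of non-targeting control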
# The deposit covers about 50,000 reagents; shown is an unselected part. About 4,000 of them (8%) count as active. 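Mouse siRNA library applied to hamster cells; one well for each siRNA.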 Unmarked entries are inactive. Reagents against one gene are numbered here.
gene knocked down,siRNA no.,"GFP, % of control","viability (ATP), % of control"
Cc2d1a,1,47.9,64.9
Cc2d1a,2,87.5,90.1
Cc2d1a,3,151 (active),135
Rfesd,1,134 (active),95
Rfesd,2,97.6,83.3
Rfesd,3,70.7,71.2
Srsf3,1,147 (active),90.2
Srsf3,2,112,111
Cgas,1,67.6,50.7
Cgas,2,82.4,83.6
Cgas,3,52.7,57
Vgll2,1,46.9,47.9
Vgll2,2,67.4,58.1
Vgll2,3,87.3,97.5
Cacnb1,1,56.3,60.7
Cacnb1,2,49,66.9
Cacnb1,3,70.7,92.2
1600012H06Rik,1,59.3,70.9
1600012H06Rik,2,89,82.7
1600012H06Rik,3,74.5,80.4
Omt2b,1,83.5,47
Omt2b,2,70.9,78.5
Omt2b,3,74.9,41.6
Or2a7,1,24.9,23.2
Or2a7,2,78.8,78.8
Or2a7,3,45.6,45.7
Gpat4,1,109,99.2
Gpat4,2,53.4,72.5
2610524H06Rik,1,78.3,79
2610524H06Rik,2,71.4,74.6
2610524H06Rik,3,89.1,88.2
Ndrg3,1,40.1,42.1
Ndrg3,2,105,55.2
Ndrg3,3,131 (active),82.3
Tmem63c,1,54.7,48.6
Tmem63c,2,116,46.6
Tmem63c,3,75.2,102
Kcnj6,1,127 (active),106
Kcnj6,2,111,59.1
Kcnj6,3,96.5,67.8
Calm2,1,93.7,120
Calm2,2,93.7,90.4
Zc3h12a,1,38.5,35.4
Zc3h12a,2,51.3,66.9
Zc3h12a,3,153 (active),142
Art3,1,105,93.1
Art3,2,88.3,133
Art3,3,118,115
Cfhr2,1,62.8,76.4
Cfhr2,2,55.3,52.7
Cfhr2,3,73.8,62
Ermn,1,48.7,59.6
Ermn,2,68.3,79.7
Ermn,3,75.7,52.9
Zfp653,1,68.1,60.3
Zfp653,2,77,73.5
Zfp653,3,62.3,49.1
Fam167b,1,74.2,77.6
Fam167b,2,99.1,84.9
Fam167b,3,105,96.5
Wdr12,1,60.6,49.8
Wdr12,2,39.8,42.4
Wdr12,3,65.6,75.2
Gjc2,1,108,63.5
Gjc2,2,126 (active),105
Gjc2,3,59.2,84.9
Zfp281,1,109,102
Zfp281,2,80,74.7
Or5w12,1,75.1,63.2
Or5w12,2,104,40.9
Or5w12,3,80.5,73.9
Hfm1,1,78.9,93.6
Hfm1,2,85,93.5
Hfm1,3,66.5,61.3
Tarm1,1,77.5,45.9
Tarm1,2,74.8,89.6
Tarm1,3,49.8,56.9
Htr6,1,99.3,54.3
Htr6,2,52.3,51.4
Htr6,3,71.4,60.1
Nolc1,1,70.4,55.3
Nolc1,2,61.7,56.5
Nolc1,3,73.3,60.5
Kctd5,1,78.5,136
Kctd5,2,95.2,53.8

Entries listed so far called active (7):
gene knocked down,siRNA no.,"GFP, % of control","viability (ATP), % of control"
Cc2d1a,3,151 (active),135
Rfesd,1,134 (active),95
Srsf3,1,147 (active),90.2
Ndrg3,3,131 (active),82.3
Kcnj6,1,127 (active),106
Zc3h12a,3,153 (active),142
Gjc2,2,126 (active),105
